From publication PMC6316800 come the findings set out here.

Amino acid sequences for entries named in this document (tags omitted).
UniProt P03496: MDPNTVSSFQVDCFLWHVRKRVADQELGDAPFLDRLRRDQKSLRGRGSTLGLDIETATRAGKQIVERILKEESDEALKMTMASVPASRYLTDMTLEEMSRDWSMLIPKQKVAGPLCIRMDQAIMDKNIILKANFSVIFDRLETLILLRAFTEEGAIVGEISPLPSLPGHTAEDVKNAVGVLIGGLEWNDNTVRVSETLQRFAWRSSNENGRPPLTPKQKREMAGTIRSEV

The target of the test is Influenza A virus non-structural protein 1 (NS1), strain A/Puerto Rico/8/1934(H1N1) (Influenza A virus A/Puerto Rico/8/1934(H1N1)) (UniProt P03496). Briefly: affinity purification with mass spectrometry.

Results are given in words; binding and its absence hold for the method and conditions named. In cells and extracts the contact can be indirect. A yes stands for co-enrichment or nearness to the bait. Other partners may have been found.

B1: 5’-3’ exoribonuclease 2 (protein, UniProt Q9H0D6 1-950)
chain: MGVPAFFRWLSRKYPSIIVNCVEEKPKECNGVKIPVDASKPNPNDVEFDNLYLDMNGIIHPCTHPEDKPAPKNEDEMMVAIFEYIDRLFSIVRPRRLLYMAIDGVAPRAKMNQQRSRRFRASKEGMEAAVEKQRVREEILAKGGFLPPEEIKERFDSNCITPGTEFMDNLAKCLRYYIADRLNNDPGWKNLTVILSDASAPGEGEHKIMDYIRRQRAQPNHDPNTHHCLCGADADLIMLGLATHEPNFTIIREEFKPNKPKPCGLCNQFGHEVKDCEGLPREKKGKHDELADSLPCAEGEFIFLRLNVLREYLERELTMASLPFTFDVERSIDDWVFMCFFVGNDFLPHLPSLEIRENAIDRLVNIYKNVVHKTGGYLTESGYVNLQRVQMIMLAVGEVEDSIFKKRKDDEDSFRRRQKEKRKRMKRDQPAFTPSGILTPHALGSRNSPGSQVASNPRQAAYEMRMQNNSSPSISPNTSFTSDGSPSPLGGIKRKAEDSDSEPEPEDNVRLWEAGWKQRYYKNKFDVDAADEKFRRKVVQSYVEGLCWVLRYYYQGCASWKWYYPFHYAPFASDFEGIADMPSDFEKGTKPFKPLEQLMGVFPAASGNFLPPSWRKLMSDPDSSIIDFYPEDFAIDLNGKKYAWQGVALLPFVDERRLRAALEEVYPDLTPEETRRNSLGGDVLFVGKHHPLHDFILELYQTGSTEPVEVPPELCHGIQGKFSLDEEAILPDQIVCSPVPMLRDLTQNTVVSINFKDPQFAEDYIFKAVMLPGARKPAAVLKPSDWEKSSNGRQWKPQLGFNRDRRPVHLDQAAFRTLGHVMPRGSGTGIYSNAAPPPVTYQGNLYRPLLRGQAQIPKLMSNMRPQDSWRGPPPLFQQQRFDRGVGAEPLLPWNRMLQTQNAAFQPNQYQMLAGPGGYPPRRDDRGGRQGYPREGRKYPLPPPSGRYNWN
Turning to B1, the binding entry is listed as “binds”.

B2: WD repeat-containing protein 3 (protein, UniProt Q9UNX4 1-943)
chain: MGLTKQYLRYVASAVFGVIGSQKGNIVFVTLRGEKGRYVAVPACEHVFIWDLRKGEKILILQGLKQEVTCLCPSPDGLHLAVGYEDGSIRIFSLLSGEGNVTFNGHKAAITTLKYDQLGGRLASGSKDTDIIVWDVINESGLYRLKGHKDAITQALFLREKNLLVTSGKDTMVKWWDLDTQHCFKTMVGHRTEVWGLVLLSEEKRLITGASDSELRVWDIAYLQEIEDPEEPDPKKIKGSSPGIQDTLEAEDGAFETDEAPEDRILSCRKAGSIMREGRDRVVNLAVDKTGRILACHGTDSVLELFCILSKKEIQKKMDKKMKKARKKAKLHSSKGEEEDPEVNVEMSLQDEIQRVTNIKTSAKIKSFDLIHSPHGELKAVFLLQNNLVELYSLNPSLPTPQPVRTSRITIGGHRSDVRTLSFSSDNIAVLSAAADSIKIWNRSTLQCIRTMTCEYALCSFFVPGDRQVVIGTKTGKLQLYDLASGNLLETIDAHDGALWSMSLSPDQRGFVTGGADKSVKFWDFELVKDENSTQKRLSVKQTRTLQLDEDVLCVSYSPNQKLLAVSLLDCTVKIFYVDTLKFFLSLYGHKLPVICMDISHDGALIATGSADRNVKIWGLDFGDCHKSLFAHDDSVMYLQFVPKSHLFFTAGKDHKIKQWDADKFEHIQTLEGHHQEIWCLAVSPSGDYVVSSSHDKSLRLWERTREPLILEEEREMEREAEYEESVAKEDQPAVPGETQGDSYFTGKKTIETVKAAERIMEAIELYREETAKMKEHKAICKAAGKEVPLPSNPILMAYGSISPSAYVLEIFKGIKSSELEESLLVLPFSYVPDILKLFNEFIQLGSDVELICRCLFFLLRIHFGQITSNQMLVPVIEKLRETTISKVSQVRDVIGFNMAGLDYLKRECEAKSEVMFFADATSHLEEKKRKRKKREKLILTLT
Regarding B2, the binding entry is “binds”.

B3: WD repeat-containing protein 75 (protein, UniProt Q8IWA0 1-830)
chain: MVEEENIRVVRCGGSELNFRRAVFSADSKYIFCVSGDFVKVYSTVTEECVHILHGHRNLVTGIQLNPNNHLQLYSCSLDGTIKLWDYIDGILIKTFIVGCKLHALFTLAQAEDSVFVIVNKEKPDIFQLVSVKLPKSSSQEVEAKELSFVLDYINQSPKCIAFGNEGVYVAAVREFYLSVYFFKKKTTSRFTLSSSRNKKHAKNNFTCVACHPTEDCIASGHMDGKIRLWRNFYDDKKYTYTCLHWHHDMVMDLAFSVTGTSLLSGGRESVLVEWRDATEKNKEFLPRLGATIEHISVSPAGDLFCTSHSDNKIIIIHRNLEASAVIQGLVKDRSIFTGLMIDPRTKALVLNGKPGHLQFYSLQSDKQLYNLDIIQQEYINDYGLIQIELTKAAFGCFGNWLATVEQRQEKETELELQMKLWMYNKKTQGFILNTKINMPHEDCITALCFCNAEKSEQPTLVTASKDGYFKVWILTDDSDIYKKAVGWTCDFVGSYHKYQATNCCFSEDGSLLAVSFEEIVTIWDSVTWELKCTFCQRAGKIRHLCFGRLTCSKYLLGATENGILCCWNLLSCALEWNAKLNVRVMEPDPNSENIAAISQSSVGSDLFVFKPSEPRPLYIQKGISREKVQWGVFVPRDVPESFTSEAYQWLNRSQFYFLTKSQSLLTFSTKSPEEKLTPTSKQLLAEESLPTTPFYFILGKHRQQQDEKLNETLENELVQLPLTENIPAISELLHTPAHVLPSAAFLCSMFVNSLLLSKETKSAKEIPEDVDMEEEKESEDSDEENDFTEKVQDTSNTGLGEDIIHQLSKSEEKELRKFRKIDYSWIAAL
For B3, the binding result was “binds”.

B4: WD repeat-containing protein 43 (protein, UniProt Q15061 1-677)
chain: MAAGGGGSCDPLAPAGVPCAFSPHSQAYFALASTDGHLRVWETANNRLHQEYVPSAHLSGTCTCLAWAPARLQAKESPQRKKRKSEAVGMSNQTDLLALGTAVGSILLYSTVKGELHSKLISGGHDNRVNCIQWHQDSGCLYSCSDDKHIVEWNVQTCKVKCKWKGDNSSVSSLCISPDGKMLLSAGRTIKLWVLETKEVYRHFTGHATPVSSLMFTTIRPPNESQPFDGITGLYFLSGAVHDRLLNVWQVRSENKEKSAVMSFTVTDEPVYIDLTLSENKEEPVKLAVVCRDGQVHLFEHILNGYCKKPLTSNCTIQIATPGKGKKSTPKPIPILAAGFCSDKMSLLLVYGSWFQPTIERVALNSREPHMCLVRDISNCWAPKVETAITKVRTPVMNSEAKVLVPGIPGHHAAIKPAPPQTEQVESKRKSGGNEVSIEERLGAMDIDTHKKGKEDLQTNSFPVLLTQGLESNDFEMLNKVLQTRNVNLIKKTVLRMPLHTIIPLLQELTKRLQGHPNSAVLMVQWLKCVLTVHASYLSTLPDLVPQLGTLYQLMESRVKTFQKLSHLHGKLILLITQVTASEKTKGATSPGQKAKLVYEEESSEEESDDEIADKDSEDNWDEDEEESESEKDEDVEEEDEDAEGKDEENGEDRDTASEKELNGDSDLDPENESEEE
As for B4, the binding result was “binds”.

B5: WD repeat-containing protein 74 (protein, UniProt Q6RFH5 1-385)
chain: MAAAAARWNHVWVGTETGILKGVNLQRKQAANFTAGGQPRREEAVSALCWGTGGETQMLVGCADRTVKHFSTEDGIFQGQRHCPGGEGMFRGLAQADGTLITCVDSGILRVWHDKDKDTSSDPLLELRVGPGVCRMRQDPAHPHVVATGGKENALKIWDLQGSEEPVFRAKNVRNDWLDLRVPIWDQDIQFLPGSQKLVTCTGYHQVRVYDPASPQRRPVLETTYGEYPLTAMTLTPGGNSVIVGNTHGQLAEIDLRQGRLLGCLKGLAGSVRGLQCHPSKPLLASCGLDRVLRIHRIQNPRGLEHKVYLKSQLNCLLLSGRDNWEDEPQEPQEPNKVPLEDTETDELWASLEAAAKRKLSGLEQPQGALQTRRRKKKRPGSTSP
In the case of B5, the binding result is listed as “binds”.

B6: Probable ATP-dependent RNA helicase DDX27 (protein, UniProt Q96GQ7 1-765)
chain: MLADLGLIGTIGEDDEVPVEPESDSGDEEEEGPIVLGRRQKALGKNRSADFNPDFVFTEKEGTYDGSWALADVMSQLKKKRAATTLDEKIEKVRKKRKTEDKEAKSGKLEKEKEAKEGSEPKEQEDLQENDEEGSEDEASETDYSSADENILTKADTLKVKDRKKKKKKGQEAGGFFEDASQYDENLSFQDMNLSRPLLKAITAMGFKQPTPIQKACIPVGLLGKDICACAATGTGKTAAFALPVLERLIYKPRQAPVTRVLVLVPTRELGIQVHSVTRQLAQFCNITTCLAVGGLDVKSQEAALRAAPDILIATPGRLIDHLHNCPSFHLSSIEVLILDEADRMLDEYFEEQMKEIIRMCSHHRQTMLFSATMTDEVKDLASVSLKNPVRIFVNSNTDVAPFLRQEFIRIRPNREGDREAIVAALLTRTFTDHVMLFTQTKKQAHRMHILLGLMGLQVGELHGNLSQTQRLEALRRFKDEQIDILVATDVAARGLDIEGVKTVINFTMPNTIKHYVHRVGRTARAGRAGRSVSLVGEDERKMLKEIVKAAKAPVKARILPQDVILKFRDKIEKMEKDVYAVLQLEAEEKEMQQSEAQINTAKRLLEKGKEAVVQEPERSWFQTKEERKKEKIAKALQEFDLALRGKKKRKKFMKDAKKKGEMTAEERSQFEILKAQMFAERLAKRNRRAKRARAMPEEEPVRGPAKKQKQGKKSVFDEELTNTSKKALKQYRAGPSFEERKQLGLPHQRRGGNFKSKSRYKRRK
In the case of B6, the binding result is given as “binds”.

B7: U3 small nucleolar RNA-associated protein 6 homolog (protein, UniProt Q9NYH9 1-597)
chain: MAEIIQERIEDRLPELEQLERIGLFSHAEIKAIIKKASDLEYKIQRRTLFKEDFINYVQYEINLLELIQRRRTRIGYSFKKDEIENSIVHRVQGVFQRASAKWKDDVQLWLSYVAFCKKWATKTRLSKVFSAMLAIHSNKPALWIMAAKWEMEDRLSSESARQLFLRALRFHPECPKLYKEYFRMELMHAEKLRKEKEEFEKASMDVENPDYSEEILKGELAWIIYKNSVSIIKGAEFHVSLLSIAQLFDFAKDLQKEIYDDLQALHTDDPLTWDYVARRELEIESQTEEQPTTKQAKAVEVGRKEERCCAVYEEAVKTLPTEAMWKCYITFCLERFTKKSNSGFLRGKRLERTMTVFRKAHELKLLSECQYKQLSVSLLCYNFLREALEVAVAGTELFRDSGTMWQLKLQVLIESKSPDIAMLFEEAFVHLKPQVCLPLWISWAEWSEGAKSQEDTEAVFKKALLAVIGADSVTLKNKYLDWAYRSGGYKKARAVFKSLQESRPFSVDFFRKMIQFEKEQESCNMANIREYYERALREFGSADSDLWMDYMKEELNHPLGRPENCGQIYWRAMKMLQGESAEAFVAKHAMHQTGHL
For the molecule B7, the binding entry is reported as “binds”.

B8: WD repeat-containing protein 46 (protein, UniProt O15213 1-610)
chain: METAPKPGKDVPPKKDKLQTKRKKPRRYWEEETVPTTAGASPGPPRNKKNRELRPQRPKNAYILKKSRISKKPQVPKKPREWKNPESQRGLSGTQDPFPGPAPVPVEVVQKFCRIDKSRKLPHSKAKTRSRLEVAEAEEEETSIKAARSELLLAEEPGFLEGEDGEDTAKICQADIVEAVDIASAAKHFDLNLRQFGPYRLNYSRTGRHLAFGGRRGHVAALDWVTKKLMCEINVMEAVRDIRFLHSEALLAVAQNRWLHIYDNQGIELHCIRRCDRVTRLEFLPFHFLLATASETGFLTYLDVSVGKIVAALNARAGRLDVMSQNPYNAVIHLGHSNGTVSLWSPAMKEPLAKILCHRGGVRAVAVDSTGTYMATSGLDHQLKIFDLRGTYQPLSTRTLPHGAGHLAFSQRGLLVAGMGDVVNIWAGQGKASPPSLEQPYLTHRLSGPVHGLQFCPFEDVLGVGHTGGITSMLVPGAGEPNFDGLESNPYRSRKQRQEWEVKALLEKVPAELICLDPRALAEVDVISLEQGKKEQIERLGYDPQAKAPFQPKPKQKGRSSTASLVKRKRKVMDEEHRDKVRQSLQQQHHKEAKAKPTGARPSALDRFVR
Regarding B8, the binding entry is listed as “binds”.
